Measurements reported in PubChem BioAssay AID652272 (Drosophila RNAi Screening Center, 2013).
The screen tested about 21,000 reagents; shown is an unselected part of those that have a named target and a result. Of all reagents, 503 (2.4%) were called active. 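Raw plate light values, not normalised; calls rest on replicate z-scores that were not deposited; hits include reporter decreases as well as increases.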 A plus sign joins genes that one reagent is predicted to hit. No sequences are given here. The record does not give: the amount of reagent, the time to read-out.

Assay: 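Genes whose knock-down decreases or increases Hedgehog reporter output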 (primary screen)
Cells: Drosophila clone 8 (Cl8) cells
Reagents: long dsRNA against Drosophila genes
Detection: 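Plate reader light from a firefly reporter under a ptc promoter fragment that responds to Hedgehog, with Renilla light as transfection reference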
Scale: firefly Hh reporter signal: higher = more ptc reporter light; Renilla reference signal: higher = more Renilla control light
Hit rule: 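Called a hit if the two-replicate mean z-score lies below -2 or above +3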
Meaning of the calls: active = hit: reporter lowered or raised; inactive = not a hit

target gene | PubChem SID | firefly Hh reporter signal, replicate 1 | firefly Hh reporter signal, replicate 2 | firefly Hh reporter signal, replicate 3 | Renilla reference signal, replicate 1 | Renilla reference signal, replicate 2 | call
ACXA (Adenylyl cyclase X A) | SID104180636 | 1.66e5 | 63379 | – | 4336 | 6117 | inactive
Csgalnact (Chondroitin sulfate N-acetylgalactosaminyltransferase) | SID104186020 | 67656 | 29849 | – | 1942 | 2874 | inactive
Liprin-alpha | SID104181924 | 87572 | 85611 | – | 3416 | 3328 | inactive
mthl6 (methuselah-like 6) | SID104190026 | 65991 | 52050 | – | 7364 | 3752 | inactive
Bap111 (Brahma associated protein 111kD) | SID104198211 | 1.06e5 | 6.26e5 | 94689 | 2677 | 29811 | inactive
CG8034 | SID104199868 | 78892 | 43245 | – | 2038 | 1208 | inactive
CG14933 + CG42486 | SID104182207 | 1.50e5 | 75027 | – | 2535 | 6134 | inactive
CG30384 | SID104185824 | 93076 | 54122 | – | 2208 | 4226 | inactive
lncRNA:CR32661 + lncRNA:CR43157 | SID104199586 | 66402 | 2.39e5 | – | 1480 | 8453 | inactive
Mpp6 (M-phase phosphoprotein 6) | SID104182961 | 70864 | 44564 | – | 2141 | 4616 | inactive
CG14204 | SID104199351 | 90183 | 1.56e5 | – | 4066 | 8506 | inactive
Grl65a (Gustatory receptor-like 65a) | SID104188629 | 93706 | 2.10e5 | – | 2738 | 8257 | inactive
CG13227 | SID104186139 | 1.38e5 | 94757 | – | 3122 | 6793 | inactive
dlp (dally-like) | SID104190073 | 32049 | 40826 | – | 1611 | 1568 | inactive
dlp (dally-like) | SID104190264 | 37728 | – | – | 1508 | 1293 | inactive
CG10205 | SID104185771 | 73120 | 31153 | – | 1745 | 2728 | inactive
IntS8 (Integrator 8) | SID104187209 | 1.22e5 | 87200 | – | 4920 | 3434 | inactive
CG18094 | SID104182447 | 81687 | 46304 | – | 2305 | 4080 | inactive
CG3842 | SID104198118 | 60244 | 1.67e5 | – | 1597 | 6282 | inactive
CG15773 | SID104197871 | 1.03e5 | 3.01e5 | – | 3878 | 10452 | inactive
CG42237 | SID104199683 | 97780 | 2.95e5 | – | 2345 | 10269 | inactive
CG8360 | SID104182877 | 1.69e5 | 69684 | – | 4645 | 7725 | inactive
ss (spineless) | SID104196861 | 65186 | 87686 | – | 2032 | 2214 | inactive
CG9760 | SID104190893 | 25626 | 54228 | 67713 | 4643 | 4251 | inactive
mRpS23 (mitochondrial ribosomal protein S23) | SID104181140 | 4.30e5 | 2.01e5 | – | 22073 | 8960 | inactive
CG31650 | SID104182932 | 67543 | 45612 | – | 3445 | 1799 | inactive
NimB4 (Nimrod B4) | SID104181676 | 63768 | 35265 | – | 2677 | 1428 | inactive
CG1785 | SID104197931 | 79223 | 74605 | – | 2326 | 2544 | inactive
CG31740 | SID104181411 | 1.39e5 | 2.60e5 | – | 4203 | 12370 | inactive
RhoGAP1A (Rho GTPase activating protein at 1A) | SID104200441 | 90009 | 1.73e5 | – | 3048 | 7133 | inactive
RhoGAP1A (Rho GTPase activating protein at 1A) | SID104200443 | 65760 | 1.65e5 | – | 1674 | 6336 | inactive
DUBAI (Deubiquitinating apoptotic inhibitor) | SID104187073 | 77475 | 29659 | – | 3188 | 1306 | inactive
Rnp4F (RNA-binding protein 4F) | SID104198498 | 70231 | 69270 | – | 1734 | 1756 | inactive
fz (frizzled) | SID104191140 | 71792 | – | – | 3456 | 2076 | inactive
CG14787 | SID104198398 | 85092 | 1.97e5 | – | 3795 | 9697 | inactive
Sqor (Sulfide quinone oxidoreductase) | SID104188245 | 1.14e5 | 58330 | – | 4457 | 2091 | inactive
emc (extra macrochaetae) | SID104188507 | 3.68e5 | 53953 | – | 2672 | 2672 | inactive
lark | SID104191154 | 99681 | 52532 | – | 4203 | 2396 | inactive
pic (piccolo) | SID104196431 | 1.09e5 | 95872 | – | 4178 | 3544 | inactive
CG14342 | SID104180164 | 92257 | 50486 | – | 2689 | 1824 | active
CG12746 | SID104192010 | 1.38e5 | 96553 | – | 5014 | 4077 | inactive
Cyp49a1 (Cytochrome P450 49a1) | SID104186529 | 1.28e5 | 71020 | – | 2877 | 5578 | inactive
Cyp49a1 (Cytochrome P450 49a1) | SID104187159 | 1.50e5 | 44352 | – | 3752 | 4178 | inactive
inaE (inactivation no afterpotential E) | SID104199168 | 94177 | 1.69e5 | – | 3395 | 7393 | inactive
inaE (inactivation no afterpotential E) | SID104199169 | 1.27e5 | 1.06e5 | – | 2791 | 2624 | inactive
inaE (inactivation no afterpotential E) | SID104199171 | 1.33e5 | 3.44e5 | – | 4693 | 13981 | inactive
inaE (inactivation no afterpotential E) | SID104199518 | 1.27e5 | 2.95e5 | – | 4471 | 13104 | inactive
CG10298 | SID104192314 | 62898 | 79392 | – | 2457 | 2640 | inactive
CG42380 + CG42379 + PIG-M + 1 more | SID104183676 | 1.05e5 | 2.33e5 | – | 1907 | 10224 | inactive
CG42380 + CG42379 + PIG-M + 1 more | SID104184372 | 88583 | 44309 | – | 3317 | 1786 | inactive
Zip102B (Zinc/iron regulated transporter-related protein 102B) | SID104196947 | 1.59e5 | 4.10e5 | – | 5895 | 13780 | inactive
app (approximated) | SID104188951 | 1.86e5 | 3.49e5 | – | 4802 | 13616 | inactive
app (approximated) | SID104190038 | 77060 | 46333 | 61232 | 4426 | 5132 | inactive
app (approximated) | SID104190318 | 48811 | 58980 | 75700 | 5463 | 5356 | inactive
Etl1 | SID104182703 | 84256 | 56968 | – | 3267 | 2787 | inactive
Fatp (retired record) | SID104182846 | 64277 | 81730 | – | 3484 | 3196 | inactive
CG15369 | SID104197833 | 72234 | 1.20e5 | – | 2258 | 4860 | inactive
CG31245 | SID104195290 | 7.02e5 | 1.10e5 | – | 36951 | 2583 | inactive
PGRP-SC2 (Peptidoglycan recognition protein SC2) | SID104186273 | 84423 | 46192 | – | 2034 | 4161 | inactive
CG1789 | SID104197932 | 89505 | 60596 | – | 2326 | 1658 | inactive
Hs3st-A (Heparan sulfate 3-O sulfotransferase-A) | SID104186299 | 56188 | 26316 | – | 3739 | 1339 | inactive
Hs3st-A (Heparan sulfate 3-O sulfotransferase-A) | SID104186300 | 63238 | 42745 | – | 1878 | 3812 | inactive
Hs3st-A (Heparan sulfate 3-O sulfotransferase-A) | SID104186301 | 82677 | 65223 | – | 2448 | 4743 | inactive
CG30047 | SID104185132 | 87218 | 1.78e5 | – | 2544 | 8141 | inactive
CG7730 | SID104190701 | 1.11e5 | 95752 | – | 4632 | 3511 | inactive
Pgls (6-phosphogluconolactonase) | SID104199561 | 79816 | 1.55e5 | – | 2230 | 5624 | inactive
Ets21C (Ets at 21C) | SID104180543 | 1.21e5 | 1.33e5 | – | 2346 | 2934 | inactive
mamo (maternal gene required for meiosis) | SID104198793 | 2.13e5 | 38648 | – | 15972 | 1392 | active
mamo (maternal gene required for meiosis) | SID104199162 | 87931 | 2.35e5 | – | 1488 | 8453 | inactive
mamo (maternal gene required for meiosis) | SID104199163 | 98864 | 3.08e5 | – | 2246 | 10546 | inactive
mamo (maternal gene required for meiosis) | SID104199164 | 1.20e5 | 4.57e5 | 3.58e5 | 3460 | 2802 | inactive
mamo (maternal gene required for meiosis) | SID104199165 | 1.39e5 | 6.95e5 | 4.36e5 | 3856 | 3360 | inactive
CG14397 | SID104182173 | 1.01e5 | 58144 | – | 2556 | 4996 | inactive

12 entries already listed, sorted by “Renilla reference signal, replicate 1”, highest first.
target gene | PubChem SID | firefly Hh reporter signal, replicate 1 | firefly Hh reporter signal, replicate 2 | firefly Hh reporter signal, replicate 3 | Renilla reference signal, replicate 1 | Renilla reference signal, replicate 2 | call
IntS8 (Integrator 8) | SID104187209 | 1.22e5 | 87200 | – | 4920 | 3434 | inactive
CG8360 | SID104182877 | 1.69e5 | 69684 | – | 4645 | 7725 | inactive
CG9760 | SID104190893 | 25626 | 54228 | 67713 | 4643 | 4251 | inactive
CG15773 | SID104197871 | 1.03e5 | 3.01e5 | – | 3878 | 10452 | inactive
CG13227 | SID104186139 | 1.38e5 | 94757 | – | 3122 | 6793 | inactive
CG42237 | SID104199683 | 97780 | 2.95e5 | – | 2345 | 10269 | inactive
CG18094 | SID104182447 | 81687 | 46304 | – | 2305 | 4080 | inactive
ss (spineless) | SID104196861 | 65186 | 87686 | – | 2032 | 2214 | inactive
CG10205 | SID104185771 | 73120 | 31153 | – | 1745 | 2728 | inactive
dlp (dally-like) | SID104190073 | 32049 | 40826 | – | 1611 | 1568 | inactive
CG3842 | SID104198118 | 60244 | 1.67e5 | – | 1597 | 6282 | inactive
dlp (dally-like) | SID104190264 | 37728 | – | – | 1508 | 1293 | inactive
